Test results reported in PMC11266262.
No constants are given. Whether binding was seen depends on the method and setting. In cells and extracts the contact can be indirect. Some binding calls cover weakened binding; strength is not graded here.

Legend:
[1] = molecular target: T1, Programmed cell death ligand 2 (PD-L2), exogenous (UniProt Q9BQ51); assay: co-IP; lysate of PD-L2-overexpressing H1975 and H460 cells in immunoprecipitation lysis buffer; anti-PD-L2 antibody with protein A/G magnetic beads at 4°C overnight; 5 washes; western blot for RGMB
T1 sequence: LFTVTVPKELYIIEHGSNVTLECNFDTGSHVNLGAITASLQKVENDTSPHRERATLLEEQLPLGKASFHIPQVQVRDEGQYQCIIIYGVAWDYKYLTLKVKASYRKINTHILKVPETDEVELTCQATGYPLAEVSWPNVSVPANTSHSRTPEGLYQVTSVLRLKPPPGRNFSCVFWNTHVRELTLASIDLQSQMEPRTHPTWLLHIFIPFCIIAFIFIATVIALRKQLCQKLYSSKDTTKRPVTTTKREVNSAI

[2] = molecular target: T1, Programmed cell death ligand 2 (PD-L2), exogenous; assay: proximity ligation; Duolink in situ PLA in fixed H1975 and H460 cells 24 h after transfection with exogenous PD-L2 plasmid; rabbit anti-RGMB and mouse anti-PD-L2 antibodies (1:200); confocal microscopy

B1: Repulsive guidance molecule B (RGMB) (receptor, UniProt Q6NW40 46-413)
chain: GDCQQPAQCRIQKCTTDFVSLTSHLNSAVDGFDSEFCKALRAYAGCTQRTSKACRGNLVYHSAVLGISDLMSQRNCSKDGPTSSTNPEVTHDPCNYHSHAGAREHRRGDQNPPSYLFCGLFGDPHLRTFKDNFQTCKVEGAWPLIDNNYLSVQVTNVPVVPGSSATATNKITIIFKAHHECTDQKVYQAVTDDLPAAFVDGTTSGGDSDAKSLRIVERESGHYVEMHARYIGTTVFVRQVGRYLTLAIRMPEDLAMSYEESQDLQLCVNGCPLSERIDDGQGQVSAILGHSLPRTSLVQAWPGYTLETANTQCHEKMPVKDIYFQSCVFDLLTTGDANFTAAAHSALEDVEALHPRKERWHIFPSSGN
In the case of B1, the binding [1] is reported as “binds” and the binding [2] is reported as “binds”.
